# In PubChem BioAssay AID493014 (National Center for Advancing Translational Sciences (NCATS), 2011):
# This is one part of the list. The main result of the screen is listed elsewhere. These columns were measured beside it and carry no call. Compounds called inactive in the main read-out are mostly missing here. Words in brackets tell the shape of the fitted curve; partial curves, single points and poor fits give uncertain potencies.
# Assay: qHTS Assay to Find Inhibitors of Chronic Active B-Cell Receptor Signaling
# Settings: ABC-DLBCL IkBa-CBG/CBR reporter, luminescence ratio (green luciferase fused to IkBa over red control in TMD8 lymphoma cells), 4 h
# Method in brief: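 Compounds up to 46 uM were incubated four hours with TMD8 cells whose green CBG68 luciferase is fused to IkappaBalpha; red CBR luminescence normalised the signal, and concentration-effect curves were fitted to fusion, red and ratio data.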
# [1] = measured here: CBR red luminescence, cell number
# [2] = measured here: IkBa-CBG green luminescence
Compound,AC50 [1],AC50 [2]
O=C(NNC(=O)c1ccccc1Br)c1cccc(Cl)c1,"25.1 µM [falling, single point]",
Cc1ccc(/C=N\NC(=O)C2CC(=O)N(c3ccccc3)C2)o1 (stereo not given),"2.24 µM [rising, partial curve, poor fit]",
O=C(Nc1cccc(Br)c1)c1ccc2nc(N3C(=O)CCC3=O)sc2c1,"12.6 µM [falling, single point]",
Cc1ccc(SC2CC(=O)N(c3ccc4c(c3)OCCO4)C2=O)cc1 (stereo not given),"35.5 µM [falling, single point]",
COC(=O)NNC(=O)COc1ccc2ccccc2c1Br,"6.51 µM [rising, single point]",
CC(=O)c1cccc(CN2CCCC(C(=O)Nc3ccc(-c4ccco4)cc3)C2)c1 (stereo not given),"12.6 µM [falling, single point]",
CCc1ccc(CCC(=O)Nc2ccc(C(=O)O)cc2)o1,"8.91 µM [falling, partial curve]",
NC(=O)c1ccccc1N/C=C/C(=O)c1ccc(Cl)cc1Cl,"14.1 µM [falling, single point]",
C=CCn1c(C)cc(-c2csc(NC)n2)c1C,"35.5 µM [falling, partial curve, poor fit]",
CC(C)OP(=O)(c1ccc(N(C)C)cc1)C(Nc1ccccc1)c1ccccc1 (stereo not given),"17.8 µM [falling, single point]",
CS(=O)(=O)c1ccc(C(=O)OCC(=O)Nc2cccnc2Cl)cc1[N+](=O)[O-],"20.6 µM [falling, single point]",
Oc1[nH]c2ccccc2c1N=NC(=S)N1CCOCC1,"35.5 µM [falling, single point]","1 µM [falling, full curve, poor fit]"
Cc1ccc(Nc2nnc(-c3ccccc3N)o2)cc1C,"5.62 µM [falling, full curve]",
COc1ccc(NC(=O)C2C3C=CC(C3)C2C(=O)O)cc1 (stereo not given),"3.98 µM [rising, full curve, poor fit]",
COc1ccc2c(c1)[nH]c(=O)c1sc3ccccc3c12,"3.98 µM [falling, full curve, poor fit]",
O=C(NCc1ccccc1)Oc1cccc(Cl)c1,"2.59 µM [rising, full curve, poor fit]",
Cc1nc2ccc(NC(=O)N3CCCCC3)cc2nc1C,"8.2 µM [falling, partial curve]",
Cc1[nH]nc(SCC(=O)N2CCC(C)CC2)c1[N+](=O)[O-],"11.6 µM [falling, single point]",
N#C/C(=N/Nc1ccc(OC(F)(F)F)cc1)C(N)=S,"6.31 µM [falling, partial curve]",
Cc1ccc2nsnc2c1S(=O)(=O)NCCc1c(C)[nH]c2ccc(F)cc12,"2.91 µM [rising, single point]",
Cc1ccc(S(=O)(=O)NCCNC(=O)c2ccccc2)cc1,"10 µM [rising, partial curve]",
O=C(C1CCC(=O)N(C2CCCC2)C1)N1CCN(c2ccc(Cl)cc2)CC1 (stereo not given),"14.1 µM [falling, single point]",
CC(=O)Cc1nsc(NC(=O)c2cc(-c3cccc(C(F)(F)F)c3)oc2C)n1,"2.91 µM [rising, full curve]",

Compound,AC50 [1],AC50 [2]
COc1cc(/C=N/n2c(COc3ccccc3)n[nH]c2=S)cc(OC)c1OC(C)=O,"35.5 µM [rising, single point]",
COc1ccc2nc(SCC(=O)NCc3ccc(S(N)(=O)=O)cc3)[nH]c2c1,"10 µM [rising, partial curve, poor fit]",
CCOC(=O)c1cccc(NC(=O)/C=C/c2ccc3c(c2)OCO3)c1,"16.4 µM [falling, partial curve]",
O=C(C1CCCO1)N1CCN(Cc2c(O)ccc3ccccc23)CC1 (stereo not given),"11.6 µM [falling, partial curve, poor fit]",
Cc1noc(C)c1C(=O)Nc1nc2ccc(S(C)(=O)=O)cc2s1,"5.62 µM [falling, partial curve]",
C[n+]1c2n(c3ccccc31)N=C(c1cc(C(C)(C)C)c(O)c(C(C)(C)C)c1)CS2,"11.2 µM [falling, partial curve]",
N#Cc1c[nH]n2c(=O)c3c(nc12)CCC3,"35.5 µM [rising, single point]",
CCOCCOC(=O)NCCCCCCNC(=O)OCCOCC,"31.6 µM [rising, single point]",
N/C(=N\c1nc2ccccc2o1)NC(=O)c1cccc(Cl)c1,"10 µM [rising, partial curve, poor fit]",
O=C(O)CCCCCNC(=O)c1cccc(Br)c1,"3.16 µM [falling, full curve]",
CCN(C[C@H]1N[C@@](CC)(C(=O)OC)[C@H]2C(=O)N(Cc3ccccc3)C(=O)[C@@H]12)C(C)=O,"29.1 µM [rising, single point]",
Cc1cccc(NC(=S)N2CCCCCC2)c1C,"0.891 µM [falling, full curve]",
Cn1cccc1/C=C1/SC(=O)N(CC(=O)N2CCCC2)C1=O,"35.5 µM [rising, single point]",
Cc1cc(C(=O)Nc2ccc(Br)cc2)cs1,"17.8 µM [falling, single point]",
O=C(CN1CCOCC1)NCCNS(=O)(=O)c1ccccc1,"0.708 µM [rising, full curve, poor fit]",
Cc1ccc(C(OCC(O)CNC(C)c2ccccc2)c2ccccc2)cc1 (stereo not given),"35.5 µM [falling, single point]",
Cc1nc(NS(=O)(=O)c2cccs2)c2c3c(sc2n1)CCC3,"22.4 µM [falling, partial curve, poor fit]",
CCCCNC(=S)N1CCn2cccc2C1c1ccccc1 (stereo not given),"35.5 µM [falling, single point]",
CC(=O)c1sc(NC(=O)c2oc3ccc(F)cc3c2C)nc1C,"9.2 µM [falling, single point]",
CC1(C)O[C@@H]1COc1c2ccoc2cc2oc(=O)ccc12,"13 µM [rising, single point]",
Nc1nc(Nc2ccc(Cl)cc2)nc(NCCO)c1[N+](=O)[O-],"31.6 µM [rising, single point]",
Cc1[nH]c2ccccc2c1C(=O)C(=O)NC1CC1,"22.4 µM [falling, single point]",
CC(=O)Nc1ccc(S(=O)(=O)Nc2c(NC3CCCCC3)c3ccccc3oc2=O)cc1,"7.94 µM [falling, partial curve, poor fit]",

# Single values from the entries so far.
# Value for CC(=O)Nc1ccc(S(=O)(=O)Nc2c(NC3CCCCC3)c3ccccc3oc2=O)cc1 under AC50 [1]: 7.94 µM [falling, partial curve, poor fit]
# Value for O=C(C1CCCO1)N1CCN(Cc2c(O)ccc3ccccc23)CC1 (stereo not given) under AC50 [1]: 11.6 µM [falling, partial curve, poor fit]

# Later entries

Compound,AC50 [1],AC50 [2]
O=C1COc2ccc(C(=O)NCc3ccco3)cc2N1,"6.51 µM [falling, single point]",
COc1ccc(C(NC(=O)c2cc(OC)ccc2OC)c2ccccc2)cc1 (stereo not given),"35.5 µM [falling, single point]",
COc1cc(OC)c(C2Nc3cccc4cccc(c34)N2)c(OC)c1,,"3.98 µM [falling, partial curve, poor fit]"
O=C(NCc1ccccc1)NC(=O)c1ccccc1,"0.708 µM [rising, full curve, poor fit]",
Cc1ccc(O)c(-c2cc(C(=O)NCc3ccccc3)[nH]n2)c1,"1.46 µM [rising, partial curve, poor fit]",
C/C(=N\NC(N)=S)c1cc(-c2ccccc2)c(-c2ccccc2)s1,"8.91 µM [rising, partial curve]","12.6 µM [falling, partial curve]"
CC(=O)N1CCN(c2ccc(NCc3ccc(F)cc3)cc2)CC1,"14.1 µM [rising, partial curve, poor fit]",
COc1ccc(/C=C/C(=O)c2ccc(OC)cc2O)cc1,"16.4 µM [falling, partial curve, poor fit]",
COc1ccc(/C=N/Nc2ncnc3sc(C)c(C)c23)cc1,,"29.1 µM [falling, single point]"
CN(C)C(=O)CSc1n[nH]c(=O)[nH]c1=O,"35.5 µM [falling, single point]",
Nc1nnc(-c2ccc(Cl)cc2)o1,"8.91 µM [rising, partial curve, poor fit]",
COc1ccccc1C(=O)Nc1cccc(C(=O)c2ccccc2)c1,"35.5 µM [falling, single point]",
COC(=O)CN1C(=S)N(c2ccc(Cl)cc2)C(=O)C1CC(=O)Nc1ccc(Cl)cc1 (stereo not given),"35.5 µM [falling, partial curve, poor fit]",
CCOc1ccccc1CN1CCCC(C(=O)Nc2cccc(-n3cccn3)c2)C1 (stereo not given),"35.5 µM [falling, single point]",
COc1cc(/C=N/N=C(\N)c2nonc2N)cc(OC)c1O,"35.5 µM [falling, single point]",
CCC(C)NS(=O)(=O)c1ccc(OCC(=O)NCc2cccnc2)cc1 (stereo not given),"25.9 µM [rising, single point]",
Cc1cc(N=Cc2c(O)ccc3cc(Br)ccc23)no1,"25.9 µM [falling, single point]",
O=C(NCCOc1ccc(Cl)cc1)c1ccco1,"12.6 µM [rising, partial curve]",
O=C(CSc1nnc(-c2cccnc2)o1)c1cc2ccccc2oc1=O,"9.2 µM [falling, partial curve, poor fit]",
O=C(O)C1CCN(c2nc(-c3ccccc3)c3cc(Br)ccc3n2)CC1,"5.62 µM [falling, full curve]","3.16 µM [rising, full curve, poor fit]"
CCn1c(/C=C/c2ccc(F)cc2)nc2ccccc2c1=O,"3.98 µM [rising, single point]",
